This note sets out measurements from article PMC11115282.

The assay deals with zebrafish tbk1, Flag- or Myc-tagged (zebrafish). Kind of assay: co-IP; HEK293T cells in 100-mm dishes transfected with the indicated plasmids (4 μg each), 24 h; total cell lysates immunoprecipitated with anti-Flag or anti-HA antibody-conjugated agarose beads; immunoblot for the tags; for the domain mapping (Fig 5A-B) cells were treated with 3-MA for 8 h and IP was with anti-HA beads. A general note: In western blotting, separated proteins are transferred to a membrane and probed.

Results are given in words; binding and its absence hold for the method and conditions named. Binding seen in cells or lysates may run through a third protein. Some results given as binding are weak or reduced against the parent protein; the word gives no strength. Where a sequence is shown, tags or fusion partners need not be part of it.

B1: zebrafish myosin-regulated light chain interacting protein b (mylipb), Myc- or Flag-tagged (protein, UniProt Q05AK5 1-464)
chain: MLCHITRPDSVVLEVEVDPKANGEDILNKICQKMGIIEVDYFGLQFTGTKGESLWMNLRNRICQEVDCVSPCRLRLRVKFFVEPHLILQEQTRHLFLMHVKEEIIKGSLRLDAEQAIELCALLAQAEFGDYKQNTAKYCYSQIYGQDPSHDTINTISLKHKSLEGVSQASAEYQALQLVSSLTYYGVEWHFARDSEGQQLLIGVGQEGLFVCKSDFTPIERLMYPVIQMATQSGRNVYVTITKDNGDSVVLLFKFVSPSAANGLYRAITEIHAFYRCDTVMSTVKMQYSRDFKGHLASLFLNESIDLGKRYIFDIQRTSKEVYDRTRRALFNAGVSVNGRGISRSLLRQTKVDREERMCVDCRETHVLKEKLQRLQEALTCALCCEQEISAAFCPCGHMFCCYNCASQLQCCPVCRSEVDRVQHVYLPTCASLLGLAEAKTTNSVLRRTGISEDCANKENARQM
Take B1: the binding entry is reported as “binds”.
